Results on 16 targets are retold here after the supplement of paper PMC6411743.

Amino acid sequences for entries named in this document (tags omitted). A change or cut given only in a name is not applied to a line headed by its entry.
UniProt Q504Q3: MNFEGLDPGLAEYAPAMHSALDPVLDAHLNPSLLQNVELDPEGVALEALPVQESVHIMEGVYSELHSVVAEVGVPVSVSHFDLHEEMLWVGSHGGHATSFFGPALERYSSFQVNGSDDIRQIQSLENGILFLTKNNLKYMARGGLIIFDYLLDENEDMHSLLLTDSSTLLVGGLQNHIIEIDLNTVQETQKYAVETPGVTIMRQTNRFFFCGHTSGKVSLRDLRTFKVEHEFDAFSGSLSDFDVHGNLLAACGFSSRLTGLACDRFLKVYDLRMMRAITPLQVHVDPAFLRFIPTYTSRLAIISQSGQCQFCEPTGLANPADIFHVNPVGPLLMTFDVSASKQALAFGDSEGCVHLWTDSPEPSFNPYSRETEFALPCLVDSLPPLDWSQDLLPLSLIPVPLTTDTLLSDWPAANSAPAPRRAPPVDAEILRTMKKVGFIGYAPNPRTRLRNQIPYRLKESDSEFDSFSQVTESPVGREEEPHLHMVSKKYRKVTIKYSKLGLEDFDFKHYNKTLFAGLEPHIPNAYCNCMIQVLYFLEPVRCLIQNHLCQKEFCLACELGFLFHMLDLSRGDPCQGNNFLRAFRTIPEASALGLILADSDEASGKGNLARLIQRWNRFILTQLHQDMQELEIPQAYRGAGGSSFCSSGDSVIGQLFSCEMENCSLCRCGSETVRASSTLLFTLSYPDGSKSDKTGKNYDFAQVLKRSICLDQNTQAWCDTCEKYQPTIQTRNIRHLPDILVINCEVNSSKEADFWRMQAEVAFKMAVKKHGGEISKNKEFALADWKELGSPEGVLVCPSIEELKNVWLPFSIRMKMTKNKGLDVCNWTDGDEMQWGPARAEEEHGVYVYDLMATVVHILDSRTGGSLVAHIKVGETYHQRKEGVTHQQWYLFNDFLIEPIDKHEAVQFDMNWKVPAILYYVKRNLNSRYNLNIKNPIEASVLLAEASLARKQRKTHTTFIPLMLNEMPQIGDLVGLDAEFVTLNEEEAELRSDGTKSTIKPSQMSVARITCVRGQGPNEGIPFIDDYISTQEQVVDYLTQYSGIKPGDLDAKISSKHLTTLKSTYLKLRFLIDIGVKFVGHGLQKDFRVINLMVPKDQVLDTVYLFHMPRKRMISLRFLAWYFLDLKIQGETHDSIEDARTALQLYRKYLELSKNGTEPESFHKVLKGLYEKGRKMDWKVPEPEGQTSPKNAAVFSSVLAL
UniProt Q8IWE5: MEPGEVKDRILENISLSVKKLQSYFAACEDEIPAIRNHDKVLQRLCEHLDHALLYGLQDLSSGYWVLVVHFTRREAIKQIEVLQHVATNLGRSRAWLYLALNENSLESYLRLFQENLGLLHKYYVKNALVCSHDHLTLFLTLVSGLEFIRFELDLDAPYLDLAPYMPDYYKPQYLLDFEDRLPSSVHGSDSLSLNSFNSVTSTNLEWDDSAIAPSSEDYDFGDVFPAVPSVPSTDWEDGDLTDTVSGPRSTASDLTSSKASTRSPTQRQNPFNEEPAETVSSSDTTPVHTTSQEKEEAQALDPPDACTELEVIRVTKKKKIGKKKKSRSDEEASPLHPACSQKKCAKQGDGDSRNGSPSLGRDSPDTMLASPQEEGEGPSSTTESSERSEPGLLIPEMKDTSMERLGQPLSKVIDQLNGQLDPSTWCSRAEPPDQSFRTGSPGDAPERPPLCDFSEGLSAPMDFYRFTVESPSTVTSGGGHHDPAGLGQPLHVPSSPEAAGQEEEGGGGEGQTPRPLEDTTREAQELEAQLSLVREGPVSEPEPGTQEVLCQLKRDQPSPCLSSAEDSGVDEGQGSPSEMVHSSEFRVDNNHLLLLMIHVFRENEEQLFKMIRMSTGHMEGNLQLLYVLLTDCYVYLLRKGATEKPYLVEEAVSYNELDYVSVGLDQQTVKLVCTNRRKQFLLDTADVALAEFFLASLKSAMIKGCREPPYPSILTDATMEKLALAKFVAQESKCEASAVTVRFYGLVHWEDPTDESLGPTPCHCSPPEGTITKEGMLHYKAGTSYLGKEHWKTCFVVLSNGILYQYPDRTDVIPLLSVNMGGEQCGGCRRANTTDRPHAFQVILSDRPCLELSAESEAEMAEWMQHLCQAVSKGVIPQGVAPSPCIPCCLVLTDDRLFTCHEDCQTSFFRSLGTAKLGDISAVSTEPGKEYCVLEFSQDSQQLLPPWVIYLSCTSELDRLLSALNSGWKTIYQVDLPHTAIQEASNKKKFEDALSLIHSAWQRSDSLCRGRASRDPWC
UniProt Q6IC98: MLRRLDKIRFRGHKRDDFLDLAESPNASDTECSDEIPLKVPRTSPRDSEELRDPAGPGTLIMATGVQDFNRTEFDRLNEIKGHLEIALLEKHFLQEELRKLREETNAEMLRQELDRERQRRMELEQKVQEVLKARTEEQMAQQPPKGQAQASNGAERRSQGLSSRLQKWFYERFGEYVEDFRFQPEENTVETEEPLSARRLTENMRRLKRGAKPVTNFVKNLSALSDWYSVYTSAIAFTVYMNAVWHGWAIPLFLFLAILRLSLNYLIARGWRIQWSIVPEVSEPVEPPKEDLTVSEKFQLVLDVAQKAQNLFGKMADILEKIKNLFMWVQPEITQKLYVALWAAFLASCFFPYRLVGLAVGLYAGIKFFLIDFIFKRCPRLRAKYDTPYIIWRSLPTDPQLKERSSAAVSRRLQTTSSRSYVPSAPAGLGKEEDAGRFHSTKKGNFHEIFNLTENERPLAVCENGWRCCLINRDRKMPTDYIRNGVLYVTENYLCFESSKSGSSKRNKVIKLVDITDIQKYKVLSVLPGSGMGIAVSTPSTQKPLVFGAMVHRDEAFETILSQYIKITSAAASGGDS
UniProt Q6P1L5: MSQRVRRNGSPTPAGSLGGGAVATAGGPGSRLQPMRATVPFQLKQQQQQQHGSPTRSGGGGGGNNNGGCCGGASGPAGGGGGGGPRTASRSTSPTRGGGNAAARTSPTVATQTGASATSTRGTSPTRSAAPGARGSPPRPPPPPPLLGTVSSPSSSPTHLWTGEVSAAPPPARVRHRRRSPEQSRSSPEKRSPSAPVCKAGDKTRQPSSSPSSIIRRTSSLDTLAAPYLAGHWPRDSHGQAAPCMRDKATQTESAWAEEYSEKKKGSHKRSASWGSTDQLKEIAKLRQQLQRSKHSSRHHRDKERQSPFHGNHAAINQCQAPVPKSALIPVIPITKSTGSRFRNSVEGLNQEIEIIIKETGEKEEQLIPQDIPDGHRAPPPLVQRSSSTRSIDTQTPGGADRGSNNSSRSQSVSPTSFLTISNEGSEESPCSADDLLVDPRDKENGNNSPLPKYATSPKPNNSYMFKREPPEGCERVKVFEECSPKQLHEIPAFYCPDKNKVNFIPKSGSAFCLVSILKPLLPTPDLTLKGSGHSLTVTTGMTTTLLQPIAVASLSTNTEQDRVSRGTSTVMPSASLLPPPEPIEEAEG
UniProt Q5GLZ8: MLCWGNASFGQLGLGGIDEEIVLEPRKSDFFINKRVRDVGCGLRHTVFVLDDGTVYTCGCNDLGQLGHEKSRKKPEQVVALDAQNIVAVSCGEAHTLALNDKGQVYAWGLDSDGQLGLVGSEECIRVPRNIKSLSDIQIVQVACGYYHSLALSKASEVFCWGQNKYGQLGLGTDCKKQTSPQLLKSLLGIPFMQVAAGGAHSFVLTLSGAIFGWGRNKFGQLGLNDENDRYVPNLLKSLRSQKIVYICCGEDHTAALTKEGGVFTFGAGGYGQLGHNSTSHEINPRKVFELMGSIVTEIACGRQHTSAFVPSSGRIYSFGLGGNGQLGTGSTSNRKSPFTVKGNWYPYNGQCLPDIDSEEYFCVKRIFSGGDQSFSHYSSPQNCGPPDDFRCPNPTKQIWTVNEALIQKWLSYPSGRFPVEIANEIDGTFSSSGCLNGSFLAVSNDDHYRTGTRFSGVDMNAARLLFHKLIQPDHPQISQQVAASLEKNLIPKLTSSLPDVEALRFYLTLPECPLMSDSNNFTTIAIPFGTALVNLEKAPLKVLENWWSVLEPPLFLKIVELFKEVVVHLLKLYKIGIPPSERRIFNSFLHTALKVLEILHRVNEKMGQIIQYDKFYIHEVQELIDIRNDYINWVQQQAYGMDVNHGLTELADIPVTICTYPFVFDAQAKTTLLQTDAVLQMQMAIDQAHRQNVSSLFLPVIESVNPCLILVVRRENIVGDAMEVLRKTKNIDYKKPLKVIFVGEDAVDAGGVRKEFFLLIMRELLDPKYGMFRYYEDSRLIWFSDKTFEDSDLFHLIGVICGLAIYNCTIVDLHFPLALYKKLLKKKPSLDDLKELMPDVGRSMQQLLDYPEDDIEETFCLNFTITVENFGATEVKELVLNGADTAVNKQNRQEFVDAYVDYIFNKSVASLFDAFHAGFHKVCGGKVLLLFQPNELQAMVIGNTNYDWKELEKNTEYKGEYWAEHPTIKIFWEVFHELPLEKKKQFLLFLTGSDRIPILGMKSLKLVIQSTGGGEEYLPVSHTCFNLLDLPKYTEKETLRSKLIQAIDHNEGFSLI
UniProt Q53HC0: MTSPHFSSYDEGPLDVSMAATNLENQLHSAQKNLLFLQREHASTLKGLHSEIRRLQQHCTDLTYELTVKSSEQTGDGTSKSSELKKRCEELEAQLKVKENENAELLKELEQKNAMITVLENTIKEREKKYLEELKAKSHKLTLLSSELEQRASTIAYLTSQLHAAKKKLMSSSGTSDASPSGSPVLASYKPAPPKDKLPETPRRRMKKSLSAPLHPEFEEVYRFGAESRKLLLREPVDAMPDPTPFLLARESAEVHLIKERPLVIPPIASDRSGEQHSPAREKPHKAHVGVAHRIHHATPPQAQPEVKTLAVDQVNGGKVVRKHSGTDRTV
UniProt Q5VWZ2: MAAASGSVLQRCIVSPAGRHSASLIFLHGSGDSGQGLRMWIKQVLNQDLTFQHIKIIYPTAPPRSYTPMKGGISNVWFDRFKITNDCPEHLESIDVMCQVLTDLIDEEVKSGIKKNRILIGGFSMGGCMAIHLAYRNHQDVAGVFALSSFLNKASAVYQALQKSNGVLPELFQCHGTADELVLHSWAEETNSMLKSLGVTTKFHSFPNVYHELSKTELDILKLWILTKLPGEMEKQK
UniProt Q68D91: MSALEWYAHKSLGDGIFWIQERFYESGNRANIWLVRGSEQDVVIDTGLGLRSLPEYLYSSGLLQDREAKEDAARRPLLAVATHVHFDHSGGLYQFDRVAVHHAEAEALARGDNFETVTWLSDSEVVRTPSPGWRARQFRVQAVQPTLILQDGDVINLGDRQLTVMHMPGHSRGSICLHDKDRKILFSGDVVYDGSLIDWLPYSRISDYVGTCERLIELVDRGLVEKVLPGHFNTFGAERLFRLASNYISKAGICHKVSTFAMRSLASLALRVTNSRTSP
UniProt Q6P1R4: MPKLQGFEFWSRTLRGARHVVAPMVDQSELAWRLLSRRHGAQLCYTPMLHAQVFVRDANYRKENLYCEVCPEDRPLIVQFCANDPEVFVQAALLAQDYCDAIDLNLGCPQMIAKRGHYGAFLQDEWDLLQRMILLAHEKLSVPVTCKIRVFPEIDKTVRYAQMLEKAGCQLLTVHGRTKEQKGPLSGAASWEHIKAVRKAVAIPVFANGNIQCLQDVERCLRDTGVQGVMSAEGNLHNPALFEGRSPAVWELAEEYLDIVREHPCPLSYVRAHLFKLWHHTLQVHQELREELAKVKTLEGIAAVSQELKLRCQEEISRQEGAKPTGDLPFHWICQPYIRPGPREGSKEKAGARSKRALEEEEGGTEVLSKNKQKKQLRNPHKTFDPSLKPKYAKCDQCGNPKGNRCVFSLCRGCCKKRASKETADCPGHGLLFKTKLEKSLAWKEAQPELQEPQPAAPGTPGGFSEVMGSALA
UniProt Q5JUR7: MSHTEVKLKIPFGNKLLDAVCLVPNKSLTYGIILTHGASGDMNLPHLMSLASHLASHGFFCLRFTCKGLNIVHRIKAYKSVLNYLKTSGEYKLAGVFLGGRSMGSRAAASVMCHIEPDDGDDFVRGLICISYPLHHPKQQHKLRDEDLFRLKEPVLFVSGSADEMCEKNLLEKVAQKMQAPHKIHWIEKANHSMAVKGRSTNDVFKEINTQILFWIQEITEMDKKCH
UniProt Q5SQI0: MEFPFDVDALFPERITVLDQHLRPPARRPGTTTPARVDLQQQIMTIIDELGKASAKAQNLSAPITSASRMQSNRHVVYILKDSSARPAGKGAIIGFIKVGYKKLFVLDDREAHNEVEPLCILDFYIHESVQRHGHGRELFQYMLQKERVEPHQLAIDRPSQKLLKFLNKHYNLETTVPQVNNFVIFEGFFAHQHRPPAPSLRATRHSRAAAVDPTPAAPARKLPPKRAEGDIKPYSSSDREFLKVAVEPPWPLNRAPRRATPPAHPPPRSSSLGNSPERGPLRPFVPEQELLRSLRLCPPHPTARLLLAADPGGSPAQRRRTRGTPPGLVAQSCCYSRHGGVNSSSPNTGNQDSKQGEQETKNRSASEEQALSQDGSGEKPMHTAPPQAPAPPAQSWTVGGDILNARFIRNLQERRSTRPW

Compound in this test: Nc1ncnc2c1ncn2[C@@H]1O[C@H](COP(=O)(O)OP(=O)(O)OP(=O)(O)O)[C@@H](O)[C@H]1O [adenosine triphosphate]
Nature of the test: NP40-soluble protein abundance relative to vehicle (solubility fold change) (ratio); higher = more soluble protein in presence of ATP. The method, boiled down: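 Each value is a fold change relative to the detergent-processed vehicle, calculated per replicate from vsn-normalised intensities. Jurkat crude lysate received eight concentrations (0.1 to 10 mM) for 10 min at room temperature and 3 min at 37 °C, then was solubilised in 0.8% NP40 with benzonase (60 min, 4 °C). The ultracentrifuged supernatant was TMT-labelled and run by LC-MS/MS in three independent experiments.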

± gives the standard deviation of the averaged measurements. The list shows a part of the results, in another mix than the full data. Most entries show no effect beyond the scatter of the controls.

As for “UniProt Q6KCM7-2|Q6KCM7-3|Q6KCM7 and related entries”, the NP40-soluble protein abundance by setting is: (concentration: 0.1mM) 1.054 ± 0.0011; (concentration: 0.5mM) 1.02 ± 0.018; (concentration: 1mM) 0.871 ± 0.048; (concentration: 2mM) 0.884 ± 0.061; (concentration: 4mM) 0.831 ± 0.012; (concentration: 6mM) 0.758 ± 0.085. Further, the NP40-soluble protein abundance worked out at 0.868 ± 0.039 (concentration: 8mM) and 0.894 ± 0.026 (concentration: 10mM).
Take UniProt Q504Q3 and related entries: the NP40-soluble protein abundance reads like this: (concentration: 0.1mM) 1.05 ± 0.077; (concentration: 0.5mM) 1.05 ± 0.018.
Consider CEP135 (UniProt Q66GS9), for which the NP40-soluble protein abundance is 0.9923 ± 0.0053 (concentration: 0.1mM); 0.984 ± 0.05 (concentration: 0.5mM); 0.983 ± 0.041 (concentration: 1mM); 0.966 ± 0.026 (concentration: 2mM); 0.964 ± 0.038 (concentration: 4mM); 0.956 ± 0.036 (concentration: 6mM). Moreover, the NP40-soluble protein abundance by setting is: (concentration: 8mM) 0.972 ± 0.029; (concentration: 10mM) 0.989 ± 0.047.
As for “Q5VVD7 and related entries (UniProt Q8IWE5)”, the NP40-soluble protein abundance reads like this: (concentration: 0.1mM) 1.04 ± 0.053; (concentration: 0.5mM) 0.979 ± 0.037; (concentration: 1mM) 0.929 ± 0.047; (concentration: 2mM) 0.998 ± 0.048; (concentration: 4mM) 0.932 ± 0.04; (concentration: 6mM) 0.953 ± 0.036. Also, the NP40-soluble protein abundance is 0.95 ± 0.04 (concentration: 8mM) and 0.955 ± 0.03 (concentration: 10mM).
Turning to GRAMD4 (UniProt Q6IC98), the NP40-soluble protein abundance runs as follows: (concentration: 0.1mM) 1.04 ± 0.037; (concentration: 0.5mM) 1.02 ± 0.056; (concentration: 1mM) 1.01 ± 0.02; (concentration: 2mM) 0.998 ± 0.02; (concentration: 4mM) 0.994 ± 0.035; (concentration: 6mM) 1.02 ± 0.031. Besides, the NP40-soluble protein abundance (concentration: 8mM) is 1.02 ± 0.025 and the NP40-soluble protein abundance (concentration: 10mM) was 1.01 ± 0.02.
For FAM117B (UniProt Q6P1L5), the NP40-soluble protein abundance is, setting by setting: (concentration: 0.1mM) 0.982 ± 0.057; (concentration: 0.5mM) 0.976 ± 0.049; (concentration: 1mM) 0.945 ± 0.048; (concentration: 2mM) 0.984 ± 0.061; (concentration: 4mM) 0.97 ± 0.039; (concentration: 6mM) 0.978 ± 0.042. Moreover, the NP40-soluble protein abundance runs as follows: (concentration: 8mM) 0.952 ± 0.069; (concentration: 10mM) 0.946 ± 0.032.
UniProt Q5GLZ8 and related entries: the NP40-soluble protein abundance (concentration: 0.1mM) came to 1.06 ± 0.092 and the NP40-soluble protein abundance (concentration: 0.5mM) stood at 1.06 ± 0.037.
Take UniProt Q53HC0 and related entries: the NP40-soluble protein abundance reads like this: (concentration: 0.1mM) 0.9985 ± 0.0087; (concentration: 0.5mM) 0.982 ± 0.068; (concentration: 1mM) 0.993 ± 0.083; (concentration: 2mM) 0.918 ± 0.031; (concentration: 4mM) 0.939 ± 0.082; (concentration: 6mM) 0.993 ± 0.21. The NP40-soluble protein abundance runs as follows: (concentration: 8mM) 0.966 ± 0.092; (concentration: 10mM) 0.922 ± 0.084.
Consider UniProt Q5T4S7 and related entries, for which the NP40-soluble protein abundance is, setting by setting: (concentration: 0.1mM) 0.993 ± 0.036; (concentration: 0.5mM) 1 ± 0.056.
For LYPLAL1 (UniProt Q5VWZ2), the NP40-soluble protein abundance by setting is: (concentration: 0.1mM) 0.97 ± 0.057; (concentration: 0.5mM) 0.985 ± 0.018; (concentration: 1mM) 0.942 ± 0.077; (concentration: 2mM) 0.936 ± 0.066; (concentration: 4mM) 0.892 ± 0.048; (concentration: 6mM) 0.879 ± 0.12. Besides, the NP40-soluble protein abundance (concentration: 8mM) is 0.883 ± 0.03 and the NP40-soluble protein abundance (concentration: 10mM) is 0.904 ± 0.057.
For MBLAC2 (UniProt Q68D91), the NP40-soluble protein abundance is 1.08 ± 0.097 (concentration: 0.1mM) and 1.03 ± 0.058 (concentration: 0.5mM).
UniProt Q6P1R4 and related entries: the NP40-soluble protein abundance runs as follows: (concentration: 0.1mM) 1.02 ± 0.045; (concentration: 0.5mM) 1.01 ± 0.055.
On to UniProt Q5JUR7, for which the NP40-soluble protein abundance by setting is: (concentration: 0.1mM) 1.06 ± 0.11; (concentration: 0.5mM) 1.03 ± 0.072; (concentration: 1mM) 1 ± 0.077; (concentration: 2mM) 1.07 ± 0.12; (concentration: 4mM) 1.04 ± 0.029; (concentration: 6mM) 1.02 ± 0.13. For the same target, the NP40-soluble protein abundance came out at 1.05 ± 0.087 (concentration: 8mM) and 1.06 ± 0.062 (concentration: 10mM).
Regarding NOM1 (UniProt Q5C9Z4), the NP40-soluble protein abundance by setting is: (concentration: 0.1mM) 0.997 ± 0.024; (concentration: 0.5mM) 1.07 ± 0.06.
Take C6ORF134 (UniProt Q5SQI0): the NP40-soluble protein abundance reads like this: (concentration: 0.1mM) 0.9649 ± 0.0057; (concentration: 0.5mM) 0.921 ± 0.022; (concentration: 1mM) 0.975 ± 0.073; (concentration: 2mM) 0.98 ± 0.089; (concentration: 4mM) 0.981 ± 0.064; (concentration: 6mM) 0.999 ± 0.09. Also, the NP40-soluble protein abundance worked out at 0.983 ± 0.029 (concentration: 8mM) and 0.998 ± 0.04 (concentration: 10mM).
UniProt Q5FBB7 and related entries: the NP40-soluble protein abundance came out at 0.96 ± 0.041 (concentration: 0.1mM) and 0.9308 ± 0.007 (concentration: 0.5mM).
